Some entries share one result that the patent states for a list of compounds.
Molecular target: truncated form of human NaV 1.8 with full channel activity (expressed in HEK cells) (Homo sapiens, UniProt Q9Y5Y9)
Experiment: E-VIPR assay detecting and measuring NaV inhibition properties (electrical stimulation, membrane potential FRET dyes)
Assay type: cell-based
Conditions: HEK cells expressing truncated human NaV 1.8, KIR2.1 BacMam; 11-point dose response; 30 min compound incubation; stimulation 10 Hz for 10 s; read-out: measured IC50 value in the E-VIPR Assay

Protein sequences, listed by entry. Tags and fused reporters are not part of them. Residues count along the entry.
UniProt Q9Y5Y9, 126-1722 limits assumed: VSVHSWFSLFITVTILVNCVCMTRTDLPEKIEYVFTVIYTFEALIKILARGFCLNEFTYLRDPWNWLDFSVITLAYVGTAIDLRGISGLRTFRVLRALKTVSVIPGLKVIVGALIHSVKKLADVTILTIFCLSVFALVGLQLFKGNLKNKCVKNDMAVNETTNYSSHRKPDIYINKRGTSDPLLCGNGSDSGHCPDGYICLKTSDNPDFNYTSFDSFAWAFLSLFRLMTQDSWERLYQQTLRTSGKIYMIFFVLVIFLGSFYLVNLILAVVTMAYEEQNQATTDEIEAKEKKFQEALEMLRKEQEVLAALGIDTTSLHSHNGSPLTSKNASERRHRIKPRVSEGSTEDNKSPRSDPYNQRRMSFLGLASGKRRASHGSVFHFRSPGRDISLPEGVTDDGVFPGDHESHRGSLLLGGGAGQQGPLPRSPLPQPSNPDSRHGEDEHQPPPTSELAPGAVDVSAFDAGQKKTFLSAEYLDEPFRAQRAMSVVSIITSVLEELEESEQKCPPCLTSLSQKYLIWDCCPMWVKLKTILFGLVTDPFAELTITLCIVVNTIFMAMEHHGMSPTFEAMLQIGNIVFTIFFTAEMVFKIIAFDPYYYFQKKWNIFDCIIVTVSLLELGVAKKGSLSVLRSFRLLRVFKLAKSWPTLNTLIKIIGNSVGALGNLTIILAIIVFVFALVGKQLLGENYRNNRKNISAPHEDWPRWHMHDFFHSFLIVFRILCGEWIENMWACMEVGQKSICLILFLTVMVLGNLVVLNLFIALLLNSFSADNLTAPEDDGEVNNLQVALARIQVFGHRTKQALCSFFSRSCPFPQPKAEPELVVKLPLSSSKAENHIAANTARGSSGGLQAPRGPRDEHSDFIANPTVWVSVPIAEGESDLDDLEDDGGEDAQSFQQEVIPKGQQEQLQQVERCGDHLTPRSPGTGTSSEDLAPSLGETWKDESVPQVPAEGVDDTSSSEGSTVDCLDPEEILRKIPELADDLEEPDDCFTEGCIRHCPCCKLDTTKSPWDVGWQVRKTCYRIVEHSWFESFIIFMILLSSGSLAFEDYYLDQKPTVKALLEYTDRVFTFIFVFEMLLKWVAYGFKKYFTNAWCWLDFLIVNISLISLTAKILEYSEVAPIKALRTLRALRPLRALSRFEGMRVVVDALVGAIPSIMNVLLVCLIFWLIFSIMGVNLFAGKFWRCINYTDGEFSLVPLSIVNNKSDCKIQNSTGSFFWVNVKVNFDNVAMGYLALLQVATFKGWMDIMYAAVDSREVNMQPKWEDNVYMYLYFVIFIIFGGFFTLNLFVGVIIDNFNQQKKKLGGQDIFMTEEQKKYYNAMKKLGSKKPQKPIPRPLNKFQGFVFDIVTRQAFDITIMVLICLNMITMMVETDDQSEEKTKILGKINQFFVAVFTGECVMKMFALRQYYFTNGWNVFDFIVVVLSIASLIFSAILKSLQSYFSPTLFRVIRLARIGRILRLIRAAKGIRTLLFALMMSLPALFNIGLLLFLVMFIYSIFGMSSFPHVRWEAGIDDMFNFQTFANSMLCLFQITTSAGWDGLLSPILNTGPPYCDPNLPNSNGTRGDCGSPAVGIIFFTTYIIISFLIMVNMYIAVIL

Row | IC50 [nM] | Structure (SMILES)
1 | < 500 | COc1c(-c2cc(C)c(C(F)(F)F)nc2N2CCCC(F)(F)CC2)[nH]c2ccnc(C(N)=O)c2c1=O [Compound 327, 2-[2-(4,4-difluoroazepan-1-yl)-5-methyl-6-(trifluoromethyl)-3-pyridyl]-3-methoxy-4-oxo-1H-1,6-naphthyridine-5-carboxamide]
2 | < 500 | COc1cc(F)ccc1Oc1cc(C(C)(C)C)cc(C)c1-c1cc(=O)c2cccc(F)c2[nH]1 [Compound 35, 2-[4-tert-butyl-2-(4-fluoro-2-methoxy-phenoxy)-6-methyl-phenyl]-8-fluoro-1H-quinolin-4-one]
3 | < 500 | Cc1c(Oc2ncc(C(F)(F)F)c(C)c2-c2cc(=O)c3c(-c4cnccn4)nccc3[nH]2)ccc(F)c1F [Compound 388, 2-(2-(3,4-difluoro-2-methylphenoxy)-4-methyl-5-(trifluoromethyl)pyridin-3-yl)-5-(pyrazin-2-yl)-1,6-naphthyridin-4(1H)-one]
4 | < 500 | Cc1c(Oc2nc3ccccc3cc2-c2cc(=O)c3ncccc3[nH]2)ccc(F)c1F [Compound 9, 2-[2-(3,4-difluoro-2-methyl-phenoxy)-3-quinolyl]-1H-1,5-naphthyridin-4-one]
5 | < 500 | Cc1ccc(-c2cc(=O)c3ccccc3[nH]2)c(OCc2ccccc2)c1 [Compound 7, 2-(2-benzyloxy-4-methyl-phenyl)-1H-quinolin-4-one]
6 | < 500 | Cc1cc(-c2cc(=O)c3cnccc3[nH]2)c(N2CCCC(F)(F)CC2)nc1C(F)(F)F [Compound 65, 2-[2-(4,4-difluoroazepan-1-yl)-5-methyl-6-(trifluoromethyl)-3-pyridyl]-1H-1,6-naphthyridin-4-one]
7 | < 500 | Cc1c(Oc2ncc(C(F)(F)F)c(C)c2-c2cc(=O)c3c(N4CCCOCC4)nccc3[nH]2)ccc(F)c1F [Compound 172, 2-[2-(3,4-difluoro-2-methyl-phenoxy)-4-methyl-5-(trifluoromethyl)-3-pyridyl]-5-(1,4-oxazepan-4-yl)-1H-1,6-naphthyridin-4-one]
8 | < 500 | Cc1c(C(C)(C)C)nn(C2CCC(C(F)(F)F)CC2)c1-c1cc(=O)c2c(C(N)=O)nccc2[nH]1 (centres unmarked) [Compound 365, 2-[5-tert-butyl-4-methyl-2-[4-(trifluoromethyl)cyclohexyl]pyrazol-3-yl]-4-oxo-1H-1,6-naphthyridine-5-carboxamide]
9 | < 500 | Cc1c(Oc2nc3ccccc3cc2-c2cc(=O)c3ccc(F)cc3[nH]2)ccc(F)c1F [Compound 17, 2-[2-(3,4-difluoro-2-methyl-phenoxy)-3-quinolyl]-7-fluoro-1H-quinolin-4-one]
10 | < 500 | CC(C)(C)c1cc(C2CCC(F)(F)CC2)c(-c2cc(=O)c3c(C(N)=O)nccc3[nH]2)cn1 [Compound 122, 2-[6-tert-butyl-4-(4,4-difluorocyclohexyl)-3-pyridyl]-4-oxo-1H-1,6-naphthyridine-5-carboxamide]
11 | < 500 | Cc1cc(-c2cc(=O)c3c(C(N)=O)nccc3[nH]2)c(N2CCCC(F)(F)CC2)nc1C(F)(F)F [Compound 81, 2-[2-(4,4-difluoroazepan-1-yl)-5-methyl-6-(trifluoromethyl)-3-pyridyl]-4-oxo-1H-1,6-naphthyridine-5-carboxamide]
12 | < 500 | Cc1c(Oc2ncc(C(F)(F)F)c(C)c2-c2cc(=O)c3c(C(=O)N[C@@H]4CCC[C@@H]4O)nccc3[nH]2)ccc(F)c1F [Compound 268, 2-[2-(3,4-difluoro-2-methyl-phenoxy)-4-methyl-5-(trifluoromethyl)-3-pyridyl]-N-[(1R,2S)-2-hydroxycyclopentyl]-4-oxo-1H-1,6-naphthyridine-5-carboxamide]
13 | < 500 | Cc1cc(-c2cc(=O)c3c(C(N)=O)nccc3[nH]2)c(Oc2ccc(F)c(F)c2C)nc1C(F)(F)F [Compound 46, 2-[2-(3,4-difluoro-2-methyl-phenoxy)-5-methyl-6-(trifluoromethyl)-3-pyridyl]-4-oxo-1H-1,6-naphthyridine-5-carboxamide]
14 | < 500 | COc1cc(F)ccc1Oc1cc(C(C)(C)C)cc(C)c1-c1cc(=O)c2c[n+]([O-])ccc2[nH]1 [Compound 33, 2-[4-tert-butyl-2-(4-fluoro-2-methoxy-phenoxy)-6-methyl-phenyl]-6-oxido-1H-1,6-naphthyridin-6-ium-4-one]
15 | < 500 | Cc1c(Oc2ncc(C(F)(F)F)c(C)c2-c2cc(=O)c3c(O)nccc3[nH]2)ccc(F)c1F [Compound 194, 2-[2-(3,4-difluoro-2-methyl-phenoxy)-4-methyl-5-(trifluoromethyl)-3-pyridyl]-5-hydroxy-1H-1,6-naphthyridin-4-one]
16 | < 500 | NC(=O)c1nccc2[nH]c(-c3cnc(C4CC(F)(F)C4)cc3C3CCC(F)(F)CC3)cc(=O)c12 [Compound 123, 2-[6-(3,3-difluorocyclobutyl)-4-(4,4-difluorocyclohexyl)-3-pyridyl]-4-oxo-1H-1,6-naphthyridine-5-carboxamide]

Row | IC50 [nM] | Structure (SMILES)
17 | < 500 | Cc1c(Oc2ncc(C(F)(F)F)c(C)c2-c2cc(=O)c3c(-c4ccnn4C)cccc3[nH]2)ccc(F)c1F [Compound 243, 2-[2-(3,4-difluoro-2-methyl-phenoxy)-4-methyl-5-(trifluoromethyl)-3-pyridyl]-5-(2-methylpyrazol-3-yl)-1H-quinolin-4-one]
18 | < 500 | Cc1c(Oc2nc3ccccc3cc2-c2cc(=O)c3cnccc3[nH]2)ccc(F)c1F [Compound 10, 2-[2-(3,4-difluoro-2-methyl-phenoxy)-3-quinolyl]-1H-1,6-naphthyridin-4-one]
19 | < 500 | Cc1c(Oc2ncc(C(F)(F)F)c(C)c2-c2cc(=O)c3c(-c4cnn(C)c4)nccc3[nH]2)ccc(F)c1F [Compound 214, 2-[2-(3,4-difluoro-2-methyl-phenoxy)-4-methyl-5-(trifluoromethyl)-3-pyridyl]-5-(1-methylpyrazol-4-yl)-1H-1,6-naphthyridin-4-one]
20 | < 500 | COC(=O)c1nccc2[nH]c(-c3cc4ccccc4nc3Oc3ccc(F)c(F)c3C)cc(=O)c12 [Compound 150, methyl 2-[2-(3,4-difluoro-2-methyl-phenoxy)-3-quinolyl]-4-oxo-1H-1,6-naphthyridine-5-carboxylate]
21 | < 500 | Cc1nc(N2CCCC(F)(F)CC2)c(-c2cc(=O)c3c(C(N)=O)nccc3[nH]2)cc1C(F)(F)F [Compound 101, 2-[2-(4,4-difluoroazepan-1-yl)-6-methyl-5-(trifluoromethyl)-3-pyridyl]-4-oxo-1H-1,6-naphthyridine-5-carboxamide]
22 | < 500 | COc1ncc2[nH]c(-c3cc(F)c(C(F)(F)F)cc3Oc3ccc(F)c(F)c3OC)cc(=O)c2c1C(N)=O [Compound 164, 2-[2-(3,4-difluoro-2-methoxy-phenoxy)-5-fluoro-4-(trifluoromethyl)phenyl]-6-methoxy-4-oxo-1H-1,7-naphthyridine-5-carboxamide]
23 | < 500 | N#Cc1nccc2[nH]c(-c3cc4ccccc4nc3N3CCCC(F)(F)CC3)cc(=O)c12 [Compound 60, 2-[2-(4,4-difluoroazepan-1-yl)-3-quinolyl]-4-oxo-1H-1,6-naphthyridine-5-carbonitrile]
24 | < 500 | CC(C)(c1cc(-c2cc(=O)c3c(C(N)=O)nccc3[nH]2)n(C2CCC(F)(F)CC2)n1)C(F)(F)F [Compound 354, 2-[2-(4,4-difluorocyclohexyl)-5-(2,2,2-trifluoro-1,1-dimethyl-ethyl)pyrazol-3-yl]-4-oxo-1H-1,6-naphthyridine-5-carboxamide]
25 | < 500 | COc1c(Oc2cc(C(F)(F)F)c(F)cc2-c2cc(=O)c3cnccc3[nH]2)ccc(F)c1F [Compound 151, 2-[2-(3,4-difluoro-2-methoxy-phenoxy)-5-fluoro-4-(trifluoromethyl)phenyl]-1H-1,6-naphthyridin-4-one]
26 | < 500 | CNC(=O)Nc1nccc2[nH]c(-c3c(Oc4ccc(F)c(F)c4C)ncc(C(F)(F)F)c3C)cc(=O)c12 [Compound 203, 1-[2-[2-(3,4-difluoro-2-methyl-phenoxy)-4-methyl-5-(trifluoromethyl)-3-pyridyl]-4-oxo-1H-1,6-naphthyridin-5-yl]-3-methyl-urea]
27 | < 500 | NC(=O)c1nccc2[nH]c(-c3ccc(C4CC(F)(F)C4)nc3C3CCC(C(F)(F)F)CC3)cc(=O)c12 (centres unmarked) [Compound 121, 2-[6-(3,3-difluorocyclobutyl)-2-[4-(trifluoromethyl)cyclohexyl]-3-pyridyl]-4-oxo-1H-1,6-naphthyridine-5-carboxamide]
28 | < 500 | Cc1c(Oc2ncc(C(F)(F)F)c(C)c2-c2cc(=O)c3c(-n4nccc4CO)nccc3[nH]2)ccc(F)c1F [Compound 187, 2-[2-(3,4-difluoro-2-methyl-phenoxy)-4-methyl-5-(trifluoromethyl)-3-pyridyl]-5-[5-(hydroxymethyl)pyrazol-1-yl]-1H-1,6-naphthyridin-4-one]
29 | < 500 | CC1(c2nn(C3CCC(F)(F)CC3)c(-c3cc(=O)c4c(C(N)=O)nccc4[nH]3)c2Br)CC(F)(F)C1 [Compound 371, 2-[4-bromo-2-(4,4-difluorocyclohexyl)-5-(3,3-difluoro-1-methyl-cyclobutyl)pyrazol-3-yl]-4-oxo-1H-1,6-naphthyridine-5-carboxamide]
30 | < 500 | Cc1c(Oc2ncc(C(F)(F)F)c(C)c2-c2cc(=O)c3c(C(=O)N[C@@H]4COC[C@H]4O)nccc3[nH]2)ccc(F)c1F [Compound 273, 2-[2-(3,4-difluoro-2-methyl-phenoxy)-4-methyl-5-(trifluoromethyl)-3-pyridyl]-N-[(3R,4S)-4-hydroxytetrahydrofuran-3-yl]-4-oxo-1H-1,6-naphthyridine-5-carboxamide]
31 | < 500 | Cc1c(Oc2ncc(C(F)(F)F)c(C)c2-c2cc(=O)c3c(NC(N)=O)nccc3[nH]2)ccc(F)c1F [Compound 204, [2-[2-(3,4-difluoro-2-methyl-phenoxy)-4-methyl-5-(trifluoromethyl)-3-pyridyl]-4-oxo-1H-1,6-naphthyridin-5-yl]urea]
32 | < 500 | NC(=O)c1ccc2[nH]c(-c3cc4ccccc4nc3N3CCCC(F)(F)CC3)cc(=O)c2n1 [Compound 62, 6-[2-(4,4-difluoroazepan-1-yl)-3-quinolyl]-8-oxo-5H-1,5-naphthyridine-2-carboxamide]

Reference: patent US12503439B2, “Heteroaryl compounds for the treatment of pain” (VERTEX PHARMACEUTICALS INCORPORATED, priority 2022, dated 2025)
